Results are given in words; binding and its absence hold for the method and conditions named. Some entries that bind do so weakly or less than the wild type. One block for each binder: values may come before it.
How the values were obtained:
hFGFR4-Histag (human) [1] = target: hFGFR4-Histag (human) (UniProt P22455); assay: SPR (BIAcore 3000)
hFGFR4-Histag (human) [2] = target: hFGFR4-Histag (human) (UniProt P22455); assay: SPR (BIAcore 3000), see Table 4
[3] = target: human FGF-R4 recombinant extracellular domain protein, construct not named (human) (UniProt P22455); assay: ELISA on coated FGF-R4 constructs, single condition, antibody concentration not given
[4] = target: human FGF-R4 recombinant extracellular domain protein, construct not named (human) (UniProt P22455); assay: ELISA on plates coated with the 4 human FGF receptors, single condition, antibody concentration not given
[5] = target: human FGF-R4 recombinant extracellular domain protein, construct not named (human) (UniProt P22455); assay: ELISA on coated FGF receptors
[6] = target: human FGF-R4 recombinant extracellular domain protein, construct not named (human) (UniProt P22455); assay: ELISA on plates coated with the 4 human FGF receptors

By UniProt entry, the sequences of proteins in these tests, tags left out. Residues count along the entry.
UniProt P22455, residues 22-369: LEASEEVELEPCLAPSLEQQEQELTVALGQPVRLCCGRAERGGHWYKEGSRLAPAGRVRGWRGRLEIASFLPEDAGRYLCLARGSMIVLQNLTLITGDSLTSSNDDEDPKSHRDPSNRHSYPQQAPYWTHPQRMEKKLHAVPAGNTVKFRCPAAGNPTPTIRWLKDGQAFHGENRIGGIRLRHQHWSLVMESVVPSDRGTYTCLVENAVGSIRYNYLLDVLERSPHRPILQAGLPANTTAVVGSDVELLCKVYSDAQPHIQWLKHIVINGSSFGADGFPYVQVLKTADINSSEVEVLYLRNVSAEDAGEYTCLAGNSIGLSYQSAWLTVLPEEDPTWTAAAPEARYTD

- binding (hFGFR4-Histag (human) [1]): binds
- binding (hFGFR4-Histag (human) [2]): binds
B1: anti-FGFR4 antibody clone 8 (human IgG1 format) (antibody, V domains shown)
VH: EVQLLESGGGLVQPGGSLRLSCAASGFTFSPYWMGWVRQAPGKGLEWVSVIWPSGGTTDYADSVKGRFTISRDNSKNTLYLQMNSLRAEDTAVYYCARVHPAGHNDHWGQGTLVTVSS
VL: QSELTQPPSASGTPGQRVTISCSGGYSNMGSNYAHWYQQLPGTAPKLLIYNNNQRPSGVPDRFSGSKSGTSASLAISGLRSEDEADYYCAAWDDSLSGPVFGGGTKLTVLG

- binding (hFGFR4-Histag (human) [1]): binds
- binding (hFGFR4-Histag (human) [2]): binds
B2: anti-FGFR4 antibody clone 36 (human IgG1 format) (antibody, V domains shown)
VH: EVQLLESGGGLVQPGGSLRLSCAASGFTFSHYWMGWVRQAPGKGLEWVSVISPSGGLTIYADSVKGRFTISRDNSKNTLYLQMNSLRAEDTAVYYCARSSGWALDAFDIWGQGTMVTVSS
VL: QYELTQPPSASGTPGQRVTISCSGSSSNIGSNIVHWYQQLPGTAPKLLIYGNNQRPSGVPDRFSVSKSGSSASLAISGLQSEDEADYYCASWDDSLKAFYVFGTGTKVTVLG

- binding (hFGFR4-Histag (human) [1]): binds
- binding (hFGFR4-Histag (human) [2]): binds
B3: anti-FGFR4 antibody clone 31 (human IgG1 format) (antibody, V domains shown)
VH: EVQLLESGGGLVQPGGSLRLSCAASGFTFSRYFMKWVRQAPGKGLEWVSWISPSGGLTEYADSVKGRFTISRDNSKNTLYLQMNSLRAEDTAVYYCARASYGAWLDYWGQGTLVTVSS
VL: DIQMTQSPSSLSLSPGERATLSCRASQSINRNLGWYQQKPGQAPRLLIYGASTRATGIPARFTGSGSGTEFSLTISSLQSEDYAIYYCQQYDNWPIIFGQGTRLEIKG

- binding (hFGFR4-Histag (human) [1]): binds
- binding (hFGFR4-Histag (human) [2]): binds
B4: anti-FGFR4 antibody clone 33 (human IgG1 format) (antibody, V domains shown)
VH: EVQLLESGGGLVQPGGSLRLSCAASGFTFSTYWMAWVRQAPGKGLEWVSVIGPSGGMTVYADSVKGRFTISRDNSKNTLYLQMNSLRAEDTAVYYCARINSGSSHFDYWGQGTLVTVSS
VL: QSVLTQPPSASGTPGQGVTISCSGSSSNIGSNSVNWYQQLPGAAPKLLIYSNNLRPSGVPARFSGSKSGTSASLAISGLRSEDEADYYCAAWDDGLDAYVVFGGGTKLTVLG

- binding [3]: binds
- binding [4]: binds
- binding [5]: binds
- binding [6]: binds
B5: anti-FGFR4 antibody 64-12 (antibody, mouse IgG1, V domains shown)
VH: DVQLVESGGGLVQPGGSRKLSCAASGFTFSNFGMHWVRQAPEKGLEWVAYISSGSSTIYYADTVKGRFTISRDNPKNTLFLQMTSLRSEDTAMYYCARYDYDDDYYAMEYWGQGTSVTVSS
VL: QAVVTQESALTTSPGETVTLTCRSSTGAVTTSNYANWVQEKPDHLFTGLIGGTNNRAPGVPARFSGSLIGDKAALTITGAQTEDEAIYFCALWYSNHWVFGGGTKLTVLG
